Reference: PubChem BioAssay AID686937 (Drosophila RNAi Screening Center, 2013)

- Purpose: 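Knock-downs that reduce output of a secreted reporter enzyme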 (primary screen)
- Cells: Drosophila S2 cells expressing secreted horseradish peroxidase
- Reagents: long dsRNA against Drosophila genes
- Time to read-out: about 5.5 days (5 days dsRNA, then 12 h reporter induction)
- Conditions: reporter expression induced after 5 days of dsRNA, read 12 h later; inducer not stated
- Detection: 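After 5 days of dsRNA and 12 h of reporter induction, medium peroxidase read by chemiluminescence and scored as per-plate z-score; higher values mean more reporter released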
- Direction: z-score: higher = more reporter secreted into medium
The deposit covers about 23,000 reagents; this is an unselected part of those with a known target gene and a result. 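Reduced-secretion tags in replicate 1 do not always agree with the z-scores; no criterion for assigning the tags was given.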 Names joined by + are all predicted targets of the reagent. Not all columns of the deposit are shown. Not given: the amount of reagent.

z-score, replicate 1, by gene and reagent
t-Grip84: DRSC10904 0.2
Adi1: DRSC10945 0.17; DRSC21485 -0.19
CG10587: DRSC11627 0.24
cue: DRSC08248 0.29
CG15406: DRSC00420 0.22
CG34144 (retired record): DRSC18885 0.05; DRSC19380 -0.44; DRSC19480 0.56
RpL13A: DRSC12265 -2.51
Pp1alpha-96A: DRSC16795 0.44
Nop56: DRSC14699 0.06
Amnionless: DRSC00317 0.09
CG1324: DRSC20496 -0.25
CG17234: DRSC00490 0.17
Ctu1: DRSC07069 0.12
CG8834: DRSC07283 0.27
Ccdc56 + mtTFB1: DRSC10809 0.06
side-III: DRSC12155 0.4; DRSC12263 -0.42; DRSC12264 0.15
GCC88: DRSC14264 0.4
Wee1: DRSC03635 -0.24
aos: DRSC11323 0.35
RanGAP: DRSC22003 0.38
Qtzl: DRSC01221 -0.89
CG15278: DRSC02481 0.57
lncRNA:CR34046: DRSC14075 0.3
CG34045: DRSC05787 0.48
CR42745 (retired record): DRSC13756 0.5
CG34301: DRSC12704 -0.38
gcl: DRSC07623 0.39
CCT1: DRSC16877 -0.54
Obp46a: DRSC06220 0.42
yellow-c + CIAPIN1: DRSC01898 0.29
Tsp42Eh: DRSC06190 0.45
CG8236: DRSC16399 0.42
CG15891 + CG15892: DRSC18095 0.13; DRSC18096 0.35
mRpS18B: DRSC02107 -0.06
Ubc7: DRSC20299 -0.23
MICAL-like: DRSC09829 0.32
CG10280: DRSC12133 0.4
CG43326 + CG43325: DRSC04157 0.25
CkIIbeta: DRSC20230 -0.48
LTV1: DRSC05951 0.18
CG12567: DRSC20845 0.52
l(2)k09848: DRSC04894 -0.04
AGO3: DRSC21386 0.31
Blos3: DRSC09573 -1.75
RunxA: DRSC20400 0.17; DRSC20498 -2.39; DRSC20524 0.63; DRSC21915 0.66
Trf4: DRSC00729 0.42
Eip63E: DRSC08658 0.25
AsnS: DRSC11468 -0.16
lncRNA:CR43242: DRSC03827 0.07
CG15011: DRSC08464 0.45
Pcyt1: DRSC08157 0.46
CG14085: DRSC10089 0.27
Dap160: DRSC01834 0.08; DRSC03313 0.42
Tdh: DRSC11788 -0.5
CG43795 + SkpF: DRSC04120 0.12
Gdh: DRSC16679 0.24
CG8206: DRSC20093 0.22
Rilpl: DRSC18494 0.25
cort: DRSC02148 0.53
CG31213: DRSC14312 0.11; DRSC15647 0.33
GstE10: DRSC06671 0.17
CG9259: DRSC03174 0.31
lawc: DRSC22531 1.22
fj: DRSC07619 0.35
CG2129: DRSC18209 0.67
CG4615: DRSC17491 0.44; DRSC18376 -0.43
CG5033: DRSC07410 0.26
BomS4: DRSC22509 -0.55
CG32486: DRSC08413 0.39; DRSC08488 0.21

11 entries already listed, arranged by “z-score, replicate 1”, low to high:
gene	DRSC id	z-score, replicate 1
side-III	DRSC12263	-0.42
CG1324	DRSC20496	-0.25
Nop56	DRSC14699	0.06
Ccdc56 + mtTFB1	DRSC10809	0.06
Amnionless	DRSC00317	0.09
Ctu1	DRSC07069	0.12
side-III	DRSC12264	0.15
CG17234	DRSC00490	0.17
CG8834	DRSC07283	0.27
side-III	DRSC12155	0.4
Pp1alpha-96A	DRSC16795	0.44
